PubChem BioAssay AID652272, Drosophila RNAi Screening Center, 2013

Test: 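Genome-wide knock-down search for components of Hedgehog signalling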 (primary screen)
Cells: Drosophila clone 8 (Cl8) cells
Reagents: long dsRNA against Drosophila genes
Measurement: 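Plate reader light from a firefly reporter under a ptc promoter fragment that responds to Hedgehog, with Renilla light as transfection reference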
Reading the numbers: firefly Hh reporter signal: higher = more ptc reporter light; Renilla reference signal: higher = more Renilla control light
Active means: 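Hit when the z-score averaged over two replicates is under -2 or over +3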
Meaning of the calls: active = hit: reporter lowered or raised; inactive = not a hit
The deposit covers about 21,000 reagents; this is an unselected part of those that have a named target and a result. In the full data, 503 (2.4%) got an active call. 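Raw plate light values, not normalised; calls rest on replicate z-scores that were not deposited; hits include reporter decreases as well as increases.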 The record does not give: the amount of reagent, the time to read-out.

How did the screen score knon (knotted onions) [DRSC07049]?
firefly Hh reporter signal, replicate 1: 68829; firefly Hh reporter signal, replicate 2: 37571; Renilla reference signal, replicate 1: 2000; Renilla reference signal, replicate 2: 3037; Outcome: inactive

How did the screen score Obp59a (Odorant-binding protein 59a) [DRSC04160]?
firefly Hh reporter signal, replicate 1: 81891; firefly Hh reporter signal, replicate 2: 75792; Renilla reference signal, replicate 1: 2042; Renilla reference signal, replicate 2: 6259; Outcome: inactive

For Obp99c (Odorant-binding protein 99c) [DRSC16262], what was measured?
firefly Hh reporter signal, replicate 1: 92413; firefly Hh reporter signal, replicate 2: 1.08e5; Renilla reference signal, replicate 1: 2390; Renilla reference signal, replicate 2: 3163; Outcome: inactive

For CG14805 [DRSC18554], what does the deposit list?
firefly Hh reporter signal, replicate 1: 96912; firefly Hh reporter signal, replicate 2: 2.07e5; Renilla reference signal, replicate 1: 4085; Renilla reference signal, replicate 2: 8065; Outcome: inactive

Which result is listed for CG11374 [DRSC00306]?
firefly Hh reporter signal, replicate 1: 1.22e5; firefly Hh reporter signal, replicate 2: 97287; Renilla reference signal, replicate 1: 2746; Renilla reference signal, replicate 2: 2581; Outcome: inactive

For Gs1 (Glutamine synthetase 1) [DRSC00753], how do the results read?
firefly Hh reporter signal, replicate 1: 1.65e5; firefly Hh reporter signal, replicate 2: 1.03e5; Renilla reference signal, replicate 1: 5178; Renilla reference signal, replicate 2: 3965; Outcome: inactive

What did the screen give for CG13039 [DRSC09920]?
firefly Hh reporter signal, replicate 1: 1.26e5; Renilla reference signal, replicate 1: 8183; Renilla reference signal, replicate 2: 3768; Outcome: inactive

With CG10214 [DRSC14213], what does the deposit list?
firefly Hh reporter signal, replicate 1: 1.22e5; firefly Hh reporter signal, replicate 2: 63292; Renilla reference signal, replicate 1: 4551; Renilla reference signal, replicate 2: 2360; Outcome: inactive

With CG12347 [DRSC14502], what does the deposit list?
firefly Hh reporter signal, replicate 1: 4.75e5; firefly Hh reporter signal, replicate 2: 1.02e5; Renilla reference signal, replicate 1: 30448; Renilla reference signal, replicate 2: 2813; Outcome: inactive

An excerpt taken from the entries so far, for reference:
knon (knotted onions) [DRSC07049] → firefly Hh reporter signal, replicate 1: 68829; firefly Hh reporter signal, replicate 2: 37571; Renilla reference signal, replicate 1: 2000; Renilla reference signal, replicate 2: 3037; Outcome: inactive
Obp59a (Odorant-binding protein 59a) [DRSC04160] → firefly Hh reporter signal, replicate 1: 81891; firefly Hh reporter signal, replicate 2: 75792; Renilla reference signal, replicate 1: 2042; Renilla reference signal, replicate 2: 6259; Outcome: inactive

Additional results follow:
For CG31689 [DRSC00734], what does the deposit list?
firefly Hh reporter signal, replicate 1: 1.72e5; firefly Hh reporter signal, replicate 2: 1.10e5; Renilla reference signal, replicate 1: 3376; Renilla reference signal, replicate 2: 2388; Outcome: inactive

For CanA1 (Calcineurin A1) [DRSC16600], what was measured?
firefly Hh reporter signal, replicate 1: 1.20e5; firefly Hh reporter signal, replicate 2: 1.37e5; Renilla reference signal, replicate 1: 3776; Renilla reference signal, replicate 2: 3772; Outcome: inactive

For Nacalpha (Nascent polypeptide associated complex protein alpha subunit) [DRSC07477], what does the deposit list?
firefly Hh reporter signal, replicate 1: 64153; firefly Hh reporter signal, replicate 2: 41959; Renilla reference signal, replicate 1: 3428; Renilla reference signal, replicate 2: 1738; Outcome: inactive

For PH4alphaSG1 (prolyl-4-hydroxylase-alpha SG1) [DRSC15080], what was measured?
firefly Hh reporter signal, replicate 1: 86646; firefly Hh reporter signal, replicate 2: 92218; Renilla reference signal, replicate 1: 2903; Renilla reference signal, replicate 2: 2354; Outcome: inactive

With Ctns (Cystinosin) [DRSC15175], what was measured?
firefly Hh reporter signal, replicate 1: 5.43e5; firefly Hh reporter signal, replicate 2: 85259; Renilla reference signal, replicate 1: 26528; Renilla reference signal, replicate 2: 2761; Outcome: inactive

With Nep2 (Neprilysin 2) [DRSC12126], how do the results read?
firefly Hh reporter signal, replicate 1: 1.82e5; firefly Hh reporter signal, replicate 2: 1.16e5; Renilla reference signal, replicate 1: 5969; Renilla reference signal, replicate 2: 2827; Outcome: inactive

For CG13101 [DRSC02201], what does the deposit list?
firefly Hh reporter signal, replicate 1: 87568; firefly Hh reporter signal, replicate 2: 77113; Renilla reference signal, replicate 1: 3765; Renilla reference signal, replicate 2: 3189; Outcome: inactive

With Ravus [DRSC15126], what was measured?
firefly Hh reporter signal, replicate 1: 71690; firefly Hh reporter signal, replicate 2: 49665; Renilla reference signal, replicate 1: 2400; Renilla reference signal, replicate 2: 1554; Outcome: inactive

How did the screen score CG15395 [DRSC00409]?
firefly Hh reporter signal, replicate 1: 1.28e5; firefly Hh reporter signal, replicate 2: 50247; Renilla reference signal, replicate 1: 3108; Renilla reference signal, replicate 2: 1277; Outcome: inactive

For Rbsn-5 (Rabenosyn-5) [DRSC03094], what was measured?
firefly Hh reporter signal, replicate 1: 95517; firefly Hh reporter signal, replicate 2: 54985; Renilla reference signal, replicate 1: 3898; Renilla reference signal, replicate 2: 2611; Outcome: inactive

For CG14418 [DRSC18637], what does the deposit list?
firefly Hh reporter signal, replicate 1: 57516; firefly Hh reporter signal, replicate 2: 1.73e5; Renilla reference signal, replicate 1: 2400; Renilla reference signal, replicate 2: 6408; Outcome: inactive

How did the screen score Or45a (Odorant receptor 45a) [DRSC07487]?
firefly Hh reporter signal, replicate 1: 1.13e5; firefly Hh reporter signal, replicate 2: 38858; Renilla reference signal, replicate 1: 2960; Renilla reference signal, replicate 2: 4292; Outcome: inactive

What is on record for Jheh3 (Juvenile hormone epoxide hydrolase 3) [DRSC06533]?
firefly Hh reporter signal, replicate 1: 94341; firefly Hh reporter signal, replicate 2: 86036; Renilla reference signal, replicate 1: 4184; Renilla reference signal, replicate 2: 3473; Outcome: inactive

With CG5674 [DRSC02874], what does the deposit list?
firefly Hh reporter signal, replicate 1: 47505; firefly Hh reporter signal, replicate 2: 23746; Renilla reference signal, replicate 1: 1904; Renilla reference signal, replicate 2: 2989; Outcome: active

For CG4666 [DRSC18379], what does the deposit list?
firefly Hh reporter signal, replicate 1: 1.12e5; firefly Hh reporter signal, replicate 2: 2.92e5; Renilla reference signal, replicate 1: 3128; Renilla reference signal, replicate 2: 10733; Outcome: inactive

What is on record for GCS1 (Glucosidase 1) [DRSC19744]?
firefly Hh reporter signal, replicate 1: 1.19e5; firefly Hh reporter signal, replicate 2: 60077; Renilla reference signal, replicate 1: 2881; Renilla reference signal, replicate 2: 1561; Outcome: inactive

Which result is listed for Tom40 (Translocase of outer membrane 40) [DRSC18796]?
firefly Hh reporter signal, replicate 1: 68649; firefly Hh reporter signal, replicate 2: 2.37e5; Renilla reference signal, replicate 1: 2841; Renilla reference signal, replicate 2: 10477; Outcome: inactive

What is on record for CG13901 [DRSC08371]?
firefly Hh reporter signal, replicate 1: 61379; firefly Hh reporter signal, replicate 2: 41008; Renilla reference signal, replicate 1: 1505; Renilla reference signal, replicate 2: 2928; Outcome: inactive
